PubChem BioAssay AID504804 – Drosophila RNAi Screening Center – 2011

Test: 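Knock-downs shielding fly cells from apoptosis caused by DNA damage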 (primary screen)
System: Drosophila Kc cells
Reagent: long dsRNA against Drosophila genes, 0.5 µg dsRNA per well
Time to read-out: 96 h (48 h knock-down, then 48 h drug)
Treatment: doxorubicin 5 µg/ml for 48 h, added 48 h after dsRNA
Detection: 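Viability measured as cellular ATP by luminescence after 48 h knock-down then 48 h doxorubicin at 5 µg/ml; unnormalised plate counts for each replicate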
Reading the numbers: raw ATP luminescence: higher = more viable cells, protection from doxorubicin
Active means: 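Active when both duplicate wells lie at least 2 SD above the plate mean and protection is confirmed by rescreening and independent dsRNAs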
The deposit covers about 19,000 reagents; shown is a random part of those with a known target gene and a result. In the full data, 47 (0.25%) got an active call. 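Signals are raw, not normalised; exact z-scores behind calls not deposited; actives needed confirmation, so some wells reaching 2 SD are inactive.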 A plus sign joins genes that one reagent is predicted to hit.

The first 4 records, to show the layout:
predicted target	amplicon	raw ATP luminescence, replicate 1	raw ATP luminescence, replicate 2	Outcome
LeuRS-m (Leucyl-tRNA synthetase, mitochondrial)	DRSC08595	39223	39753	inactive
Rab9Db + Rab9D + Rab9Fa + 1 more	DRSC17662	1.81e5	2.12e5	inactive
CG17475	DRSC15238	70720	75500	inactive
CG15369	DRSC18041	3.02e5	2.97e5	inactive

Main list, from the start:
predicted target	amplicon	raw ATP luminescence, replicate 1	raw ATP luminescence, replicate 2	Outcome
LeuRS-m (Leucyl-tRNA synthetase, mitochondrial)	DRSC08595	39223	39753	inactive
Rab9Db + Rab9D + Rab9Fa + 1 more	DRSC17662	1.81e5	2.12e5	inactive
CG17475	DRSC15238	70720	75500	inactive
CG15369	DRSC18041	3.02e5	2.97e5	inactive
CG12998	DRSC19518	3.02e5	3.14e5	inactive
Cyp4ac1 (Cytochrome P450 4ac1)	DRSC03302	1.22e5	83647	inactive
CG13613	DRSC14616	73870	87250	inactive
CG31776	DRSC00716	27470	35600	inactive
CG42544	DRSC12451	82300	55997	inactive
Tektin-C (Tektin C)	DRSC09741	56683	71520	inactive
Pka-R2 (Protein kinase, cAMP-dependent, regulatory subunit type 2)	DRSC07509	37020	1.15e5	inactive
RhoGAP92B (Rho GTPase activating protein at 92B)	DRSC14507	60860	81990	inactive
RhoGAP92B (Rho GTPase activating protein at 92B)	DRSC15637	67230	65700	inactive
CG5687	DRSC08568	52353	55590	inactive
CG18568	DRSC06768	53497	49337	inactive
mbm (mushroom body miniature)	DRSC00319	89840	84293	inactive
Def (Defensin)	DRSC07398	60867	87577	inactive
CG15728	DRSC19694	3.26e5	3.18e5	inactive
Glut1 (Glucose transporter 1)	DRSC07927	96187	87953	inactive
Glut1 (Glucose transporter 1)	DRSC08662	68707	68530	inactive
Eglp4 (Entomoglyceroporin 4)	DRSC04438	64997	50510	inactive
ND-PDSW (NADH dehydrogenase (ubiquinone) PDSW subunit)	DRSC00715	1.07e5	69587	inactive
CG18428	DRSC15326	49630	59030	inactive
Neb-cGP	DRSC17991	3.11e5	3.08e5	inactive
CG17199	DRSC15192	35230	35290	inactive
CG9447	DRSC05008	33703	1.19e5	inactive
CG10479	DRSC09733	45240	32840	inactive
CG15611	DRSC06563	54570	64550	inactive
kn (knot)	DRSC05505	72300	91017	inactive
kn (knot)	DRSC05507	76790	94383	inactive
GstD8 (Glutathione S transferase D8)	DRSC16689	61857	36303	inactive
mRpL28 (mitochondrial ribosomal protein L28)	DRSC02724	23830	36627	inactive
bond (james bond)	DRSC16135	50677	53513	inactive
CG5087	DRSC10479	74343	77963	inactive
CrzR (Corazonin receptor)	DRSC09781	52900	48083	inactive
CrzR (Corazonin receptor)	DRSC09782	57983	60577	inactive
CG7394	DRSC10835	55440	68610	inactive
CG9727	DRSC12585	46063	20517	inactive
raskol	DRSC19202	1.39e5	1.31e5	inactive
raskol	DRSC19731	3.36e5	2.99e5	inactive
raskol	DRSC19964	3.34e5	3.38e5	inactive
raskol	DRSC19967	67000	61360	inactive
SMC1 (Structural maintenance of chromosomes 1)	DRSC16846	71220	62320	inactive
Plp (Pericentrin-like protein)	DRSC10006	65627	41487	inactive
Plp (Pericentrin-like protein)	DRSC10333	60793	43247	inactive
Plp (Pericentrin-like protein)	DRSC10700	27153	23717	inactive
CG7611	DRSC11840	21027	19247	inactive
CG16957	DRSC02545	76130	74063	inactive
Kap-alpha1 (karyopherin alpha1)	DRSC11356	63620	60207	inactive
Osi13 (Osiris 13)	DRSC12281	84960	53283	inactive
Irk2 (Inwardly rectifying potassium channel 2)	DRSC15569	33520	41873	inactive
CG11529	DRSC09839	73930	64663	inactive
Abcd3 (ATP binding cassette subfamily D member 3)	DRSC19488	2.10e5	1.99e5	inactive
Fuca (alpha-L-fucosidase)	DRSC10591	60407	69223	inactive
Prosalpha5 (Proteasome alpha5 subunit)	DRSC07514	53447	40787	inactive
Lkb1 (Lkb1 kinase)	DRSC16481	42683	24960	inactive
Cyp4d14 (Cytochrome P450 4d14)	DRSC18457	67650	74570	inactive
CG7992	DRSC20070	3.27e5	3.28e5	inactive
tow (target of wingless)	DRSC10192	37220	45157	inactive
lectin-24Db	DRSC00553	1.29e5	1.03e5	inactive
RpS3 (Ribosomal protein S3)	DRSC16838	40170	30150	inactive
CG34006 (retired record)	DRSC13817	2.83e5	2.57e5	inactive
Mms19	DRSC12188	35167	35423	inactive
mod(mdg4) (modifier of mdg4)	DRSC13474	2.00e5	1.99e5	inactive
mod(mdg4) (modifier of mdg4)	DRSC13475	1.96e5	1.79e5	inactive
mod(mdg4) (modifier of mdg4)	DRSC13478	1.81e5	1.94e5	inactive
mod(mdg4) (modifier of mdg4)	DRSC13479	1.78e5	1.90e5	inactive
mod(mdg4) (modifier of mdg4)	DRSC15042	32620	36810	inactive
mod(mdg4) (modifier of mdg4)	DRSC17000	52303	54617	inactive
Cyp313a4 (Cytochrome P450 313a4)	DRSC16627	46057	47643	inactive
Arv1 (ACAT-related protein required for viability 1)	DRSC11491	62560	65850	inactive
CG10560	DRSC14256	74000	64910	inactive
Jon99Ciii (Jonah 99Ciii)	DRSC16859	34960	35950	inactive
CG17328	DRSC01927	79377	91793	inactive
CG14247	DRSC14742	59150	64780	inactive
CG10035	DRSC14177	62020	55643	inactive
Sxl + CG14425 (retired record)	DRSC18722	44930	53430	inactive
CheB74a (Chemosensory protein B 74a)	DRSC09503	67907	92477	inactive
CG34022 (retired record)	DRSC07949	1.23e5	1.01e5	inactive
CG5787	DRSC02895	1.04e5	60793	inactive
Ugt35D1 (UDP-glycosyltransferase family 35 member D1)	DRSC15107	58340	62600	inactive
mahj (mahjong)	DRSC04053	76233	58743	inactive
PIG-S (Phosphatidylinositol glycan anchor biosynthesis class S)	DRSC14643	32670	24790	inactive
PIG-S (Phosphatidylinositol glycan anchor biosynthesis class S)	DRSC15388	64110	66100	inactive
PIG-S (Phosphatidylinositol glycan anchor biosynthesis class S)	DRSC15952	39410	30720	inactive
